Results as given in PMC5738411.
No constants are given. Whether binding was seen depends on the method and setting. Binding seen in cells or lysates may run through a third protein. A yes stands for co-enrichment or nearness to the bait. Other partners may have been found. For part of these data: No binding means not detected with the bait.

Protein sequences, listed by entry. Tags and fused reporters are not part of them. Lines headed by an entry give the natural chain unless they say otherwise; changes in a name come on top. Chains listed by the source or under a name are the forms on record and can include a tag or linker. Residues count along the entry.
UniProt Q9P246, residues 453-729: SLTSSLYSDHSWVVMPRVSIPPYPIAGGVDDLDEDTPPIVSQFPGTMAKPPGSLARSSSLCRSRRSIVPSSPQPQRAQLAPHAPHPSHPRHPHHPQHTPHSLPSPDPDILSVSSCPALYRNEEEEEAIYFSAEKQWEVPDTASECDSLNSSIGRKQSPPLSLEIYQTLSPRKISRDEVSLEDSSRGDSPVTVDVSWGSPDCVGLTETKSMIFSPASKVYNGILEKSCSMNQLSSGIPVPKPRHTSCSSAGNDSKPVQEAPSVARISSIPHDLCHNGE
UniProt P63284: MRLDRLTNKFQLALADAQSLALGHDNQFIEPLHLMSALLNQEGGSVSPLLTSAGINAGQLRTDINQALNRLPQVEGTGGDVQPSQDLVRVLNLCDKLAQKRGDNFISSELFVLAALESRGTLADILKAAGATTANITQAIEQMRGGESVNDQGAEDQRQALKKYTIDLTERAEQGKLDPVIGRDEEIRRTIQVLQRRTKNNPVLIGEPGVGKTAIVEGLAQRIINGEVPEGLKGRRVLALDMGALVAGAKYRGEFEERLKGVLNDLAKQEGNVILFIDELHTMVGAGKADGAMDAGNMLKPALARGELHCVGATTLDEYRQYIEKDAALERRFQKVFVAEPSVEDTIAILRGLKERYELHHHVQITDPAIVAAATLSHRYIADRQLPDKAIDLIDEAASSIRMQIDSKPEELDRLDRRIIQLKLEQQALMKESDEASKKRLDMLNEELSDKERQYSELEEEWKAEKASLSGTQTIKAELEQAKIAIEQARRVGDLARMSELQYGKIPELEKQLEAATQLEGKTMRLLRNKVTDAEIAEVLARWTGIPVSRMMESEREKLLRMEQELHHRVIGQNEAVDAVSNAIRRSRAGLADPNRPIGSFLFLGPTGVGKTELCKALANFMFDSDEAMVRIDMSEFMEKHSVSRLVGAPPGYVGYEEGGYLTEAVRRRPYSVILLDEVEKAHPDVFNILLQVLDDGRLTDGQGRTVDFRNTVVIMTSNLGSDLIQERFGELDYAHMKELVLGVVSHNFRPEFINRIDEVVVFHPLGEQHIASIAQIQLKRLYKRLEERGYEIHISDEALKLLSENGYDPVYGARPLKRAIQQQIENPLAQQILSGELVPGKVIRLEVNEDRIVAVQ
Sarcoplasmic/endoplasmic reticulum Ca2+-ATPase 1a (SERCA1a) (P04191-2, form named): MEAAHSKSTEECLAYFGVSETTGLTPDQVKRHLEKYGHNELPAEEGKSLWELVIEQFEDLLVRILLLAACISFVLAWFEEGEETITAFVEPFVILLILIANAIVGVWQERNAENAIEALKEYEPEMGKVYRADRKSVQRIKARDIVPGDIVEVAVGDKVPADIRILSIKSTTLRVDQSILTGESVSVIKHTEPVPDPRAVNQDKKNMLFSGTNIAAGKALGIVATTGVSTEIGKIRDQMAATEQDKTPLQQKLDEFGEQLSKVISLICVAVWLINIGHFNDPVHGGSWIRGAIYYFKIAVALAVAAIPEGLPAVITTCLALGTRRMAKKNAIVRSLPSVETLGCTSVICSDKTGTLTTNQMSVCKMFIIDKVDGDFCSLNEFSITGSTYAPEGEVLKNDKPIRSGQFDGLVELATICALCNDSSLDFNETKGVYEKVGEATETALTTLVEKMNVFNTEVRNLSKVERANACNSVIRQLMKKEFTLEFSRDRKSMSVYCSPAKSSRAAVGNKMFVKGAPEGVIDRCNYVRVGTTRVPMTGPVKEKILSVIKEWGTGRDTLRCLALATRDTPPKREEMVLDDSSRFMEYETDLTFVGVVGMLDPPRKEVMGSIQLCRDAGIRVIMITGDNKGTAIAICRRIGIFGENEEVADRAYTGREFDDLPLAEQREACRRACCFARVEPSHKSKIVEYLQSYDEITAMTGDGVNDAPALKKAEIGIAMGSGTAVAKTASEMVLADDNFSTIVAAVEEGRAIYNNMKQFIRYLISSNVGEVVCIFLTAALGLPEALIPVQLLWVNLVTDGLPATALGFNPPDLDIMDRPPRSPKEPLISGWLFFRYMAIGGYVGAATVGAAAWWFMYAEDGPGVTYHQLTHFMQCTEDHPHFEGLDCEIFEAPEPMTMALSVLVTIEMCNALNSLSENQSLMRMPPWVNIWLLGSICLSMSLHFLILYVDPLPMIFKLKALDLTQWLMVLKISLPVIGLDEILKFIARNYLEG

Columns and labels:
[1] = target: GST-fused STIM2-UI protein (amino acids 453 to 729 of STIM2) (human) (UniProt Q9P246); assay: affinity purification with mass spectrometry; same binding assay as a1; bands on the GST-fused STIM2-UI beads that came from the E. coli host, identified by qTOF-MS
[2] = target: GST-fused STIM2-UI protein (amino acids 453 to 729 of STIM2) (human) (UniProt Q9P246); assay: affinity purification with mass spectrometry; GST-fused STIM2-UI immobilised on GST beads, incubated with 150 μg of solubilized rabbit triad sample for 8 h at 4 °C; bound proteins on 10% SDS-PAGE, Coomassie-stained bands digested in gel and identified by qTOF-MS; only the target purified

Chaperone protein ClpB (from UniProt P63284 1-857)
binding [1]: no binding

Sarcoplasmic/endoplasmic reticulum Ca2+-ATPase 1a (SERCA1a) (from UniProt P04191-2 1-994)
binding [2]: binds

B1: Fructose-bisphosphate aldolase class 2 (enzyme, UniProt P0AB71 1-359)
chain: MSKIFDFVKPGVITGDDVQKVFQVAKENNFALPAVNCVGTDSINAVLETAAKVKAPVIVQFSNGGASFIAGKGVKSDVPQGAAILGAISGAHHVHQMAEHYGVPVILHTDHCAKKLLPWIDGLLDAGEKHFAATGKPLFSSHMIDLSEESLQENIEICSKYLERMSKIGMTLEIELGCTGGEEDGVDNSHMDASALYTQPEDVDYAYTELSKISPRFTIAASFGNVHGVYKPGNVVLTPTILRDSQEYVSKKHNLPHNSLNFVFHGGSGSTAQEIKDSVSYGVVKMNIDTDTQWATWEGVLNYYKANEAYLQGQLGNPKGEDQPNKKYYDPRVWLRAGQTSMIARLEKAFQELNAIDVL
binding [1]: no binding

B2: 3-oxoacyl-[acyl-carrier-protein] synthase 1 (enzyme, UniProt P0A953 1-406)
chain: MKRAVITGLGIVSSIGNNQQEVLASLREGRSGITFSQELKDSGMRSHVWGNVKLDTTGLIDRKVVRFMSDASIYAFLSMEQAIADAGLSPEAYQNNPRVGLIAGSGGGSPRFQVFGADAMRGPRGLKAVGPYVVTKAMASGVSACLATPFKIHGVNYSISSACATSAHCIGNAVEQIQLGKQDIVFAGGGEELCWEMACEFDAMGALSTKYNDTPEKASRTYDAHRDGFVIAGGGGMVVVEELEHALARGAHIYAEIVGYGATSDGADMVAPSGEGAVRCMKMAMHGVDTPIDYLNSHGTSTPVGDVKELAAIREVFGDKSPAISATKAMTGHSLGAAGVQEAIYSLLMLEHGFIAPSINIEELDEQAAGLNIVTETTDRELTTVMSNSFGFGGTNATLVMRKLKD
binding [1]: no binding

B3: Peptidyl-prolyl cis-trans isomerase D (enzyme, UniProt P0ADY1 1-623)
chain: MMDSLRTAANSLVLKIIFGIIIVSFILTGVSGYLIGGGNNYAAKVNDQEISRGQFENAFNSERNRMQQQLGDQYSELAANEGYMKTLRQQVLNRLIDEALLDQYARELKLGISDEQVKQAIFATPAFQVDGKFDNSRYNGILNQMGMTADQYAQALRNQLTTQQLINGVAGTDFMLKGETDELAALVAQQRVVREATIDVNALAAKQPVTEQEIASYYEQNKNNFMTPEQFRVSYIKLDAATMQQPVSDADIQSYYDQHQDQFTQPQRTRYSIIQTKTEDEAKAVLDELNKGGDFAALAKEKSADIISARNGGDMGWLEDATIPDELKNAGLKEKGQLSGVIKSSVGFLIVRLDDIQPAKVKSLDEVRDDIAAKVKHEKALDAYYALQQKVSDAASNDTESLAGAEQAAGVKATQTGWFSKDNLPEELNFKPVADAIFNGGLVGENGAPGINSDIITVDGDRAFVLRISEHKPEAVKPLADVQEQVKALVQHNKAEQQAKVDAEKLLVDLKAGKGAEAMQAAGLKFGEPKTLSRSGRDPISQAAFALPLPAKDKPSYGMATDMQGNVVLLALDEVKQGSMPEDQKKAMVQGITQNNAQIVFEALMSNLRKEAKIKIGDALEQQ
binding [1]: no binding

B4: Phenylalanine-tRNA ligase beta subunit (enzyme, UniProt P07395 1-795)
chain: MKFSELWLREWVNPAIDSDALANQITMAGLEVDGVEPVAGSFHGVVVGEVVECAQHPNADKLRVTKVNVGGDRLLDIVCGAPNCRQGLRVAVATIGAVLPGDFKIKAAKLRGEPSEGMLCSFSELGISDDHSGIIELPADAPIGTDIREYLKLDDNTIEISVTPNRADCLGIIGVARDVAVLNQLPLVQPEIVPVGATIDDTLPITVEAPEACPRYLGRVVKGINVKAPTPLWMKEKLRRCGIRSIDAVVDVTNYVLLELGQPMHAFDKDRIEGGIVVRMAKEGETLVLLDGTEAKLNADTLVIADHNKALAMGGIFGGEHSGVNDETQNVLLECAFFSPLSITGRARRHGLHTDASHRYERGVDPALQHKAMERATRLLIDICGGEAGPVIDITNEATLPKRATITLRRSKLDRLIGHHIADEQVTDILRRLGCEVTEGKDEWQAVAPSWRFDMEIEEDLVEEVARVYGYNNIPDEPVQASLIMGTHREADLSLKRVKTLLNDKGYQEVITYSFVDPKVQQMIHPGVEALLLPSPISVEMSAMRLSLWTGLLATVVYNQNRQQNRVRIFESGLRFVPDTQAPLGIRQDLMLAGVICGNRYEEHWNLAKETVDFYDLKGDLESVLDLTGKLNEVEFRAEANPALHPGQSAAIYLKGERIGFVGVVHPELERKLDLNGRTLVFELEWNKLADRVVPQAREISRFPANRRDIAVVVAENVPAADILSECKKVGVNQVVGVNLFDVYRGKGVAEGYKSLAISLILQDTSRTLEEEEIAATVAKCVEALKERFQASLRD
binding [1]: no binding
